From the supplement of paper PMC11348887
Where a name gives a salt, the structure may show the parent alone. The list shows a part of the results. Small differences around the control level are noise. Where a SMILES comes first, the peptide text is derived from it. Bridges are numbered along the chain shown (N, C = ends). [ ]: non-standard residue; d: D form. The star is where a group is joined. Ileψ(thiazoline)Cys = CC[C@H](C)[C@H](N)C1=N[C@H](C(=O)*)CS1; dOrn = NCCC[C@@H](N)C(=O)O

Each molecule was assayed on hPSC-derived cortical neurons (WA09) (assay: nucleus area z-score vs screen plate; higher = larger nuclei (more mature)). Settings: 5 µM; treatment: days 7-14 after plating, readout day 21.

SMILES | nucleus area z-score
CCC1=C[C@@H]2CN(C1)Cc1c([nH]c3ccccc13)[C@@](C(=O)OC)(c1cc3c(cc1OC)N(C)[C@H]1[C@@](O)(C(=O)OC)[C@H](OC(C)=O)[C@]4(CC)C=CCN5CC[C@]31[C@@H]54)C2 [Vinorelbine Tartrate] | -12.2
COc1ccnc2[nH]cc(C(=O)C(=O)N3CCN(C(=O)c4ccccc4)C[C@H]3C)c12 | 0.659
CN(C)c1ccc(O)c2c1C[C@H]1C[C@H]3[C@H](N(C)C)C(O)=C(C(N)=O)C(=O)[C@@]3(O)C(O)=C1C2=O [Minocycline HCl] | 0.264
CCCCc1nc(Cl)c(CO)n1Cc1ccc(-c2ccccc2-c2nnn[nH]2)cc1 [Losartan Potassium (DuP 753)] | -0.704
COC[C@H](NC(=O)c1cnc(C)s1)C(=O)N[C@@H](COC)C(=O)N[C@@H](Cc1ccccc1)C(=O)[C@@]1(C)CO1 [Oprozomib (ONX 0912)] | -15.8
CN1C2=CC(=O)/C(=N\NC(N)=O)C=C2CC1S(=O)(=O)O (centres undefined) [Carbazochrome sodium sulfonate (AC-17)] | 0.976
C[C@H](CCC(=O)O)[C@H]1CC[C@H]2[C@@H]3CC[C@@H]4C[C@H](O)CC[C@]4(C)[C@H]3C[C@H](O)[C@]12C [Deoxycholic acid] | 0.374
C/C(=N\NC(=O)c1cccc(S(=O)(=O)N2CCOCC2)c1)c1cc(Cl)ccc1O | 0.454
Cc1cc(C2CCCCC2)n(O)c(=O)c1 [Ciclopirox ethanolamine] | -11.2

Each molecule was assayed on hPSC-derived cortical neurons (WA09) (assay: total neurite length per nucleus (MAP2) z-score; higher = more neurite growth). Settings: 5 µM; treatment: days 7-14 after plating, readout day 21.

SMILES | total neurite length per nucleus (z-score)
O=C(CCc1ccc(O)cc1)c1c(O)cc(O)cc1O [Phloretin] | 0.879
CCN(CC)Cc1ccc2cc(COC(=O)Nc3ccc(C(=O)NO)cc3)ccc2c1 [Givinostat (ITF2357)] | -5.79
COc1cc(OCc2cccc(-c3ccccc3)c2C)cc(OC)c1CN1CCCC[C@H]1C(=O)O [PD-1/PD-L1 inhibitor 1] | 0.767
O=C(Cc1ccc(-c2ccc(OCCN3CCOCC3)cc2)cn1)NCc1ccccc1 | -5.36
CC/C(=C(\c1ccc(O)cc1)c1ccc(OCCNC)cc1)c1ccccc1 [Endoxifen HCl] | -1.22
C[C@H](CCC(=O)O)[C@H]1CC[C@H]2[C@@H]3[C@@H](O)C[C@@H]4C[C@H](O)CC[C@]4(C)[C@H]3CC[C@]12C [Ursodiol] | -0.779
C[C@H](CCC(=O)O)[C@H]1CC[C@H]2[C@@H]3CC[C@@H]4C[C@H](O)CC[C@]4(C)[C@H]3CC[C@]12C [Lithocholic acid] | 1.51
Cc1cccc(Nc2nc(-c3ccncc3)cs2)c1 | 0.476
CCCN[C@H]1CCc2nc(N)sc2C1 [Pramipexole 2HCl Monohydrate] | -0.173
O=C(CCCN1CCC(O)(c2ccc(Cl)cc2)CC1)c1ccc(F)cc1 [Haloperidol] | -1.28
Cc1ccsc1C(=CCCN1CCC[C@@H](C(=O)O)C1)c1sccc1C [Tiagabine] | 0.532
CC(=O)OCC(=O)[C@@]1(O)CC[C@H]2[C@@H]3CCC4=CC(=O)C=C[C@]4(C)[C@H]3[C@@H](O)C[C@@]21C [Prednisolone Acetate] | -0.282
COc1cc(C(=O)N2CCC(N3CCN(C)CC3)CC2)ccc1Nc1ncc2c(n1)N(C)c1ccccc1C(=O)N2C | -1.37
Cn1c(Nc2ccc(C(F)(F)F)cc2)nc2cc(Oc3ccnc(-c4ncc(C(F)(F)F)[nH]4)c3)ccc21 | -0.384
CC1CNc2c(cccc2S(=O)(=O)N[C@@H](CCCNC(=N)N)C(=O)N2CC[C@@H](C)C[C@@H]2C(=O)O)C1 (some centres undefined) [Argatroban] | 0.0809
CC(C(=O)O)c1ccc(C(=O)c2cccs2)cc1 (centres undefined) [Suprofen] | 0.384
S=C(NCc1ccc2c(c1)OCO2)N1CCN(c2ncnc3c2oc2ccccc23)CC1 [Amuvatinib (MP-470)] | 0.0498
Cc1ccc(NC(=O)C2(c3ccc4c(c3)OC(F)(F)O4)CC2)nc1-c1cccc(C(=O)O)c1 [VX-809 (Lumacaftor)] | -1.03
C=CC(=O)Nc1cc(Nc2nccc(-c3cn(C)c4ccccc34)n2)c(OC)cc1N(C)CCN(C)C | -2.55
CC[C@H](C)[C@H](N)C1=N[C@H](C(=O)N[C@@H](CC(C)C)C(=O)N[C@H](CCC(=O)O)C(=O)N[C@H](C(=O)N[C@H]2CCCCNC(=O)[C@H](CC(N)=O)NC(=O)[C@@H](CC(=O)O)NC(=O)[C@H](Cc3cnc[nH]3)NC(=O)[C@@H](Cc3ccccc3)NC(=O)[C@H]([C@@H](C)CC)NC(=O)[C@@H](CCCN)NC2=O)[C@@H](C)CC)CS1 [Bacitracin] ({Ileψ(thiazoline)Cys}-L[dE]IK[dOrn]I[dF]H[dD]N; lactam 4-C) | -0.0117

SMILES | total neurite length per nucleus (z-score)
CCNC(=O)c1noc(-c2cc(C(C)C)c(O)cc2O)c1-c1ccc(CN2CCOCC2)cc1 | -2.17
CN1CCN(c2ccc3nc(-c4c(N)c5c(F)cccc5[nH]c4=O)[nH]c3c2)CC1 [Dovitinib (TKI258) Lactate] | -4.84
COc1ccc2cc1Oc1ccc(cc1)C[C@H]1c3c(cc4c(c3Oc3cc5c(cc3OC)CCN(C)[C@@H]5C2)OCO4)CCN1C [Cepharanthine] | -5.43
CC/C(=C(/CC)c1ccc(O)cc1)c1ccc(O)cc1 [Diethylstilbestrol] | 0.458
NC(=O)c1cccc2cn(-c3ccc([C@@H]4CCCNC4)cc3)nc12 [Niraparib (MK-4827) tosylate] | 0.251
Cc1cc(C)cc(C(=O)NOCCCCCC(=O)NO)c1 | -4.97
CCOC(=O)C1=C[C@]2(CC)CCCN3CCc4c(n1c1ccccc41)[C@@H]32 [Vinpocetine] | 0.55
COc1ccc(CN2CCN(C(c3ccc(F)cc3)c3ccc(F)cc3)CC2)c(OC)c1OC [Lomerizine HCl] | -1.12
Cc1cc(Cl)ccc1OCCCC(=O)NO [Droxinostat] | -0.0242
O=c1c(O)c(-c2ccc(O)cc2O)oc2cc(O)cc(O)c12 [Morin Hydrate] | 0.682
COc1nc(OCc2cccc(-c3ccccc3)c2C)ccc1CNCCNC(C)=O [PD-1/PD-L1 inhibitor 2] | -1.84
CCC1=C[C@@H]2CN(C1)Cc1c([nH]c3ccccc13)[C@@](C(=O)OC)(c1cc3c(cc1OC)N(C)[C@H]1[C@@](O)(C(=O)OC)[C@H](OC(C)=O)[C@]4(CC)C=CCN5CC[C@]31[C@@H]54)C2 [Vinorelbine Tartrate] | -4.56
COc1ccnc2[nH]cc(C(=O)C(=O)N3CCN(C(=O)c4ccccc4)C[C@H]3C)c12 | 0.136
CN(C)c1ccc(O)c2c1C[C@H]1C[C@H]3[C@H](N(C)C)C(O)=C(C(N)=O)C(=O)[C@@]3(O)C(O)=C1C2=O [Minocycline HCl] | 0.407
CCCCc1nc(Cl)c(CO)n1Cc1ccc(-c2ccccc2-c2nnn[nH]2)cc1 [Losartan Potassium (DuP 753)] | 0.631
COC[C@H](NC(=O)c1cnc(C)s1)C(=O)N[C@@H](COC)C(=O)N[C@@H](Cc1ccccc1)C(=O)[C@@]1(C)CO1 [Oprozomib (ONX 0912)] | -3.9
CN1C2=CC(=O)/C(=N\NC(N)=O)C=C2CC1S(=O)(=O)O (centres undefined) [Carbazochrome sodium sulfonate (AC-17)] | -0.645
C[C@H](CCC(=O)O)[C@H]1CC[C@H]2[C@@H]3CC[C@@H]4C[C@H](O)CC[C@]4(C)[C@H]3C[C@H](O)[C@]12C [Deoxycholic acid] | -0.161
C/C(=N\NC(=O)c1cccc(S(=O)(=O)N2CCOCC2)c1)c1cc(Cl)ccc1O | 0.689
Cc1cc(C2CCCCC2)n(O)c(=O)c1 [Ciclopirox ethanolamine] | -5.13

An excerpt from above in order of formula weight, high to low:
SMILES | total neurite length per nucleus (z-score)
CN(C)c1ccc(O)c2c1C[C@H]1C[C@H]3[C@H](N(C)C)C(O)=C(C(N)=O)C(=O)[C@@]3(O)C(O)=C1C2=O [Minocycline HCl] | 0.407
C/C(=N\NC(=O)c1cccc(S(=O)(=O)N2CCOCC2)c1)c1cc(Cl)ccc1O | 0.689
Cc1cc(C)cc(C(=O)NOCCCCCC(=O)NO)c1 | -4.97
